Experimental data taken from PubChem BioAssay AID2685 (National Center for Advancing Translational Sciences (NCATS), 2010).
Some of the results follow. The main result of the screen is listed elsewhere. These columns were measured beside it and carry no call. The list favours compounds with an active or inconclusive main result. Potencies come from curve fits of mixed quality, noted in brackets.

Assay: qHTS Assay for Lipid Storage Modulators in Drosophila S3 Cells;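 on cell number change: cells counted by Cell Tracker Red CMTPX staining in the red channel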
Conditions: BODIPY lipid droplet fluorescence, 18-24 h; for cell number change: measured here: cell count max response, cells fed with added oleic acid
How it was run: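 Laser-scanning cytometry quantifies lipid droplet accumulation (500–530 nm total intensity; droplet/cell object ratio) in oleic acid-fed (400 uM added) Drosophila S3 cells treated with a concentration series. 20 uM Triacsin C defined 100% inhibition.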

[1] = measured here: lipid fluorescence (Fed channel) AC50, cells fed with added oleic acid
[2] = measured here: cell number channel AC50, cells fed with added oleic acid

SMILES	cell number change	AC50 [1]	AC50 [2]
O=C(CSc1nnc(C23CC4CC(CC(C4)C2)C3)o1)Nc1ccc(N2CCOCC2)c(Cl)c1	-2.76%	3.26 µM [falling, partial curve]	
CCC(C(=O)OC)n1cnc2c(nnn2-c2cccc(Cl)c2)c1=O (configuration not stated)	-32.3%	29.1 µM [falling, single point]	
O=C(COC(=O)CC1CCCC1)Nc1ccccc1[N+](=O)[O-]	-3.89%	14.6 µM [rising, partial curve, poor fit]	
O=S(=O)(Nc1ccc(Br)cc1)N1CCOCC1	-28.2%	29.1 µM [falling, single point]	
CC(C)(C)CC(=O)Nc1cccc(-c2cn3cccnc3n2)c1	3.05%	0.82 µM [rising, single point]	
C=CCc1ccccc1OCC(=O)N/N=C/c1ccccc1OCC	28.6%	0.92 µM [rising, full curve]	
O=C(c1ccccc1)c1cccc(NC(=O)c2ccco2)c1	-14.4%	14.6 µM [rising, single point]	
CCC1(c2ccccc2)NC(=O)N(Cc2cccc([N+](=O)[O-])c2)C1=O (configuration not stated)	10.9%		
O=C(Nc1nnc(CCS(=O)(=O)c2ccc3ccccc3c2)s1)c1cccs1	-66.2%	0.184 µM [falling, full curve, poor fit]	13 µM [falling, partial curve, poor fit]
COc1ccccc1NC(=O)CCCC(=O)OCC(=O)c1ccc(F)cc1	-0.708%		
Cc1cccc(C(=O)OCC(=O)Nc2c(C)n(C)n(-c3ccccc3)c2=O)c1	0.963%		
CCN(CC)S(=O)(=O)c1cccc(NC(=O)c2ccc(Br)cc2)c1	14.2%		7.31 µM [rising, partial curve]
O=C(O)c1ccccc1NS(=O)(=O)c1ccc2c3c(cccc13)C(=O)N2	0.0183%	0.164 µM [rising, single point]	
Cc1ccc(C(=O)NCC(=O)OCC(=O)N2CCCc3ccccc32)cc1	11.7%	2.06 µM [rising, partial curve, poor fit]	
COc1ccc(C(=O)c2c(C)oc3ccc(O)cc23)c(OC)c1	-33.3%		29.1 µM [falling, single point]
COc1ccc2[nH]c(C)c(CCN(Cc3cccs3)C(=S)Nc3ccc(F)cc3)c2c1	43.1%	0.731 µM [rising, full curve]	2.91 µM [rising, full curve]
CSc1ccccc1OCc1cc(C(=O)N2CCc3sccc3C2)no1	0.0824%	2.31 µM [rising, partial curve]	
CC1=NN(c2ccccc2)C(=O)/C1=C\c1cn(C)c2ccccc12	-75.2%		29.1 µM [falling, single point]
O=C(c1ccccc1)N(Cc1ccccc1)Cc1ccccc1	-13.9%	0.13 µM [rising, full curve, poor fit]	
CCOC(=O)N1CCN(CC(=O)c2c[nH]c3ccc(F)cc23)CC1	-20.3%		

SMILES	cell number change	AC50 [1]	AC50 [2]
CCc1ccc(CNC(=O)C2CCC(=O)N2C2CCCCC2)cc1 (configuration not stated)	-21.7%		
CN1C(=O)c2cccc3c(S(=O)(=O)Nc4ccccc4F)ccc1c23	13%	2.91 µM [rising, single point]	
O=C(c1ccc(Cn2c(=O)[nH]c3ccccc3c2=O)cc1)N1CCN(c2ccc(F)cc2)CC1		29.1 µM [rising, single point]	
CCCCn1c(N)c(N(CCOC)C(=O)CN2C(=O)C3CCCCC3C2=O)c(=O)[nH]c1=O (configuration not stated)	-4.15%	0.461 µM [falling, partial curve, poor fit]	
Cc1nn(C(C)C(=O)NCCC2=CCCCC2)c(=O)c2nn(-c3ccccc3)c(C)c12 (configuration not stated)	-14.7%		4.11 µM [falling, partial curve, poor fit]
COC(=O)c1ccc(N=Cc2c(C(F)(F)F)[nH][nH]c2=O)cc1	-59.5%	20.6 µM [falling, single point]	29.1 µM [falling, single point]
CC(C)CN(C(=O)c1ccc(=O)n(C)n1)c1nc2ccccc2s1	75.3%	11.6 µM [rising, partial curve]	5.8 µM [rising, partial curve, poor fit]
O=C(NC(=S)Nc1ccc(C(=O)N2CCOCC2)cc1)c1ccc([N+](=O)[O-])cc1	-18.1%		
CC(C)Cn1c(N)c(C(=O)COC(=O)c2cc(F)cc(F)c2)c(=O)n(C)c1=O	-16.8%		0.461 µM [rising, single point]
CC(=O)N1CCOc2ccc(S(=O)(=O)N3CCN(c4cc(C)ccc4C)CC3)cc21	32.2%	0.651 µM [rising, partial curve, poor fit]	4.61 µM [rising, full curve, poor fit]
Cc1ccc(C(CC(=O)NCc2ccco2)c2ccccc2)c(O)c1 (configuration not stated)	-5.42%	2.06 µM [falling, partial curve]	2.31 µM [falling, partial curve]
CC(Cn1nnc2ccccc21)C(=O)O (configuration not stated)	14.8%	0.00461 µM [falling, full curve, poor fit]	
CCCCC1(CC(=O)OCC)C(=O)N(c2ccccc2)N(c2ccccc2)C1=O	22.7%		0.651 µM [rising, full curve]
O=C(Nc1nnc(SCc2ccccn2)s1)C1CC(=O)N(c2ccc(F)cc2)C1 (configuration not stated)	-14.7%	6.51 µM [rising, single point]	
CCOc1ccc(NC(=S)NC(C)CCc2ccccc2)cc1 (configuration not stated)	74.2%	20.6 µM [rising, partial curve]	29.1 µM [rising, single point]
Cc1ccc(C(=O)OCC(=O)Nc2cc(C(C)(C)C)no2)c(C)c1	-71.1%	7.31 µM [falling, partial curve]	14.6 µM [falling, partial curve]
CCCCn1c(N)c(N2CCOCC2)c(=O)n(CC(=O)NCCc2ccccc2)c1=O	-3.94%	6.51 µM [falling, single point]	2.31 µM [falling, partial curve, poor fit]
COc1ccc(NC(C)=O)cc1S(=O)(=O)NC(C)c1ccc(-n2ccnc2)cc1 (configuration not stated)	-6.97%	0.731 µM [rising, full curve]	
COCCCNC(=S)NC1CC2CCC(C1)N2Cc1ccccc1 (configuration not stated)	12.4%	1.46 µM [rising, partial curve, poor fit]	
O=[N+]([O-])c1cccc(S(=O)(=O)NC2CC3CCC2C3)c1 (configuration not stated)	-4.74%	4.61 µM [falling, single point]	7.31 µM [rising, partial curve, poor fit]

SMILES	cell number change	AC50 [1]	AC50 [2]
CCOc1ccc(Br)cc1S(=O)(=O)Nc1nc(CN2CCOCC2)nc2sc(C)c(C)c12	151%		
CC1Cc2ccccc2N1S(=O)(=O)c1cccc(C(=O)NCc2ccccn2)c1 (configuration not stated)	6.7%		6.51 µM [falling, single point]
COc1ccccc1N1CCN(/N=C/c2ccccc2C(=O)O)CC1	13.7%	13 µM [rising, partial curve]	
COC(=O)Cc1cc(=O)[nH]c(/N=C(\N)Nc2ccc(C)cc2C)n1	-24.7%		
COc1ccc(NC(=O)CSc2nnc3ccc(-c4ccccn4)nn23)cc1OC	43.3%	0.231 µM [rising, full curve]	1.84 µM [rising, full curve]
O=C(CCCn1c(=O)oc2ccccc21)N1CCc2ccccc2C1	-5.49%	2.06 µM [rising, partial curve]	0.00517 µM [rising, full curve, poor fit]
CCOC(=O)c1ccc(NC(=O)c2nc[nH]c2C(=O)NCCCCCNC(=O)OC(C)(C)C)cc1	-22%	18.4 µM [falling, single point]	
O=C(O)c1ccccc1O	11.2%	0.164 µM [falling, full curve, poor fit]	
Cc1ccc(/C([O-])=C(/C(=S)NCCN2CCOCC2)[n+]2ccccc2)cc1[N+](=O)[O-]	4.31%	0.00517 µM [falling, full curve, poor fit]	0.0058 µM [falling, full curve, poor fit]
Cc1c(/C(O)=C2/C(=O)C(=O)N(CCN3CCOCC3)C2c2ccccn2)cnn1-c1ccccc1 (configuration not stated)	0.879%		
Cc1ccc(N(CC(=O)NC2CCCCC2)C(=O)c2ccc(C)s2)cc1	-20%	29.1 µM [falling, single point]	
CC(C)(C)c1cc(CN2CCOCC2)c(C(=O)O)o1	-0.405%		
Cc1ccc(NC(=S)N2CCOCC2)cc1	-14.8%	6.51 µM [falling, single point]	
COc1cc(/C=C(\C#N)C(=O)NCCc2ccccc2)cc(OC)c1O		0.184 µM [falling, full curve, poor fit]	
CN(C)c1ccc(/C=N\NC(=O)c2ccc(Cn3cc(Cl)cn3)cc2)cc1	14.9%	1.46 µM [rising, full curve]	
OCC#CCSc1nnc(-c2cccc3ccccc23)o1	49.8%	0.092 µM [rising, full curve, poor fit]	0.103 µM [rising, full curve, poor fit]
Clc1c(CSc2nc3ccccc3o2)nc2sccn12		29.1 µM [rising, single point]	
Cc1cccc(/C(N)=N/OC(=O)c2ccncc2)c1	-6.36%	0.291 µM [rising, partial curve, poor fit]	

A draw from above in order of heavy-atom count, smallest number first.
SMILES	cell number change	AC50 [1]	AC50 [2]
CC1=NN(c2ccccc2)C(=O)/C1=C\c1cn(C)c2ccccc12	-75.2%		29.1 µM [falling, single point]
CCC1(c2ccccc2)NC(=O)N(Cc2cccc([N+](=O)[O-])c2)C1=O (configuration not stated)	10.9%		
COc1ccc2[nH]c(C)c(CCN(Cc3cccs3)C(=S)Nc3ccc(F)cc3)c2c1	43.1%	0.731 µM [rising, full curve]	2.91 µM [rising, full curve]
